Assay results: article PMC8422350
These are yes or no findings as the source states them, for the method shown. Binding seen in cells or lysates may run through a third protein. Some entries that bind do so weakly or less than the wild type.

Amino acid sequences for entries named in this document (tags omitted).
UniProt Q99JF8: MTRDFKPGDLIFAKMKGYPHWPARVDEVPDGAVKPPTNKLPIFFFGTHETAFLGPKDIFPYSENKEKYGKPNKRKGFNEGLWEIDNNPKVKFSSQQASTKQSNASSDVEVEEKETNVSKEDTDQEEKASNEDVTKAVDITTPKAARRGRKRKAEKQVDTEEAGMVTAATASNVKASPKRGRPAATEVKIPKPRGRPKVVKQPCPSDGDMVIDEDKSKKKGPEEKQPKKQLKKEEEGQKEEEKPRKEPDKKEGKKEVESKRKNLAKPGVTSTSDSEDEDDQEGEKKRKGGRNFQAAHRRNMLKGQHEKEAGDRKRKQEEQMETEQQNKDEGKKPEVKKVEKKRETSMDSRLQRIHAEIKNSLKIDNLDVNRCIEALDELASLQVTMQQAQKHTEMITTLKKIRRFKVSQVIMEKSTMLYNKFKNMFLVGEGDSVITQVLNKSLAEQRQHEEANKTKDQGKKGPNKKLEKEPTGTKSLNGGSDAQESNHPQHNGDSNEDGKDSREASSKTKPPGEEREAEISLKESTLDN
UniProt P11103: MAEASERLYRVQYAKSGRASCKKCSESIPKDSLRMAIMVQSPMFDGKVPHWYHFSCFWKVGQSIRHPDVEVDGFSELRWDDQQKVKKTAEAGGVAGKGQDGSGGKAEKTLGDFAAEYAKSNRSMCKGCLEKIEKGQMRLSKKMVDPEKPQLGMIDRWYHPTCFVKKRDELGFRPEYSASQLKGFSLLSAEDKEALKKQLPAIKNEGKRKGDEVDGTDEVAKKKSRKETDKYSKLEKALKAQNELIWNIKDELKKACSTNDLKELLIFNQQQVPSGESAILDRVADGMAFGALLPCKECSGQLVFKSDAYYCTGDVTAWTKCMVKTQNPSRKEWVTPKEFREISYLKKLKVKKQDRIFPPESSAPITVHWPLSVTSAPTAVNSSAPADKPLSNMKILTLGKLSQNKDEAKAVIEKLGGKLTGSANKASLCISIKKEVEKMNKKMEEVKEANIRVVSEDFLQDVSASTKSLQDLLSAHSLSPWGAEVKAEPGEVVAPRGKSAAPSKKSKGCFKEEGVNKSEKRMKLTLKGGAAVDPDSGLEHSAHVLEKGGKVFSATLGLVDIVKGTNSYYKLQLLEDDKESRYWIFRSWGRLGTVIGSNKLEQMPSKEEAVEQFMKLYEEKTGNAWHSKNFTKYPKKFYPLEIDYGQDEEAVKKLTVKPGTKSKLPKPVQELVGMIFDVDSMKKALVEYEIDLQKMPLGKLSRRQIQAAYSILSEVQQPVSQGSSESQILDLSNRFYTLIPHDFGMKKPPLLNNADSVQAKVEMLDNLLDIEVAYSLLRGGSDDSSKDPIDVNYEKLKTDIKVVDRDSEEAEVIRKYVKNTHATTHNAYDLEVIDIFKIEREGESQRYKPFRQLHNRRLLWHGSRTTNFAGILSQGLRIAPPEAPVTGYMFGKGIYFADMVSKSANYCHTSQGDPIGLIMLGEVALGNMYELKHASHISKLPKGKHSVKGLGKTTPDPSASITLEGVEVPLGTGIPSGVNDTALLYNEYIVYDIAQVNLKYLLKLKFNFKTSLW

Target: PC4 and SF2 interacting protein (PSIP1/LEDGF), longer isoform p75, endogenous (mouse (endogenous in MEFs and mESCs)) (UniProt Q99JF8)
Assay: co-IP; immunoprecipitation of endogenous PSIP/p75 with anti-PSIP/p75 (normal IgG as control) from nuclear lysate, western blotting; cell type not stated

PARP1 (from UniProt P11103 1-1013)
binding: binds
